The other results are listed elsewhere or left out.
Each target was assayed with COc1ccc(Cn2ccc3cc(C)c(C(=O)NO)cc32)cc1 (assay: dose-dependent thermal stabilisation call (2D-TPP, DLPTP, 10% FDR) (binary (1 = stabilised)); higher = stabilised by the compound). Details: system: HL-60 intact cells; concentration range 0.04-10 µM.
Description: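 2D thermal proteome profiling in intact HL-60 cells treated with BRD-3811 (0, 0.04, 0.29, 2, 10 uM) for 90 min at 37 C, then heated 3 min at one of 12 temperatures (42-63.9 C). Soluble protein was quantified by TMT10 MS. The value is the DLPTP call of the paper: dose-dependent thermal stabilisation over all temperatures at 10% FDR (F-test of a dose-response against a flat model); one experiment, one call per tested protein.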

Amino acid sequences for entries named in this document (tags omitted). A change or cut given only in a name is not applied to a line headed by its entry.
UniProt Q15120, whole entry, looked up: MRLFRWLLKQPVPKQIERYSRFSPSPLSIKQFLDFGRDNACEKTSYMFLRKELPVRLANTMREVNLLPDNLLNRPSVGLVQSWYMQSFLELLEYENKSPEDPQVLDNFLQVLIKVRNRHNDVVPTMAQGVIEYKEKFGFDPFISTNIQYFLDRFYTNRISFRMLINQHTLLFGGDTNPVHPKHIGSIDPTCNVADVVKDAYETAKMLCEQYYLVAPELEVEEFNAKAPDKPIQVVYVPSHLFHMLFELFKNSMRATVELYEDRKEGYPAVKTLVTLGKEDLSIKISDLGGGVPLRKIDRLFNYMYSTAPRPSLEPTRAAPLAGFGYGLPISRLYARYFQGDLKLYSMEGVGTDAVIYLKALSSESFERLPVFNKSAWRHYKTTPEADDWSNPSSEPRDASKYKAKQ
UniProt Q7RTV0, whole entry, looked up: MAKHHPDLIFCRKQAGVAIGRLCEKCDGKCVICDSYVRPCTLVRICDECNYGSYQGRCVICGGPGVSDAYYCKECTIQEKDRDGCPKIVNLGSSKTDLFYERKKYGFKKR
UniProt P22234: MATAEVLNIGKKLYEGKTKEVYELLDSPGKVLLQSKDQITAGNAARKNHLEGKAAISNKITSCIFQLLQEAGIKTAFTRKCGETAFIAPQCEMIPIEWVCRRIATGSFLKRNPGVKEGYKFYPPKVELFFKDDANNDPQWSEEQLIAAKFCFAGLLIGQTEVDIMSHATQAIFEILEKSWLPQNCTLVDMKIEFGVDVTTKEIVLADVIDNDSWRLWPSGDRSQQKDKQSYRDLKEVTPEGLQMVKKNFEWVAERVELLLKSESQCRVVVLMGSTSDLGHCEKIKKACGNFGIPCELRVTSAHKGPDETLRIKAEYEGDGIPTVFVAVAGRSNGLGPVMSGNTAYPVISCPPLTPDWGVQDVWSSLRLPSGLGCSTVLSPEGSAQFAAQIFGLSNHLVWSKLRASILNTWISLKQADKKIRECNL
UniProt O96013: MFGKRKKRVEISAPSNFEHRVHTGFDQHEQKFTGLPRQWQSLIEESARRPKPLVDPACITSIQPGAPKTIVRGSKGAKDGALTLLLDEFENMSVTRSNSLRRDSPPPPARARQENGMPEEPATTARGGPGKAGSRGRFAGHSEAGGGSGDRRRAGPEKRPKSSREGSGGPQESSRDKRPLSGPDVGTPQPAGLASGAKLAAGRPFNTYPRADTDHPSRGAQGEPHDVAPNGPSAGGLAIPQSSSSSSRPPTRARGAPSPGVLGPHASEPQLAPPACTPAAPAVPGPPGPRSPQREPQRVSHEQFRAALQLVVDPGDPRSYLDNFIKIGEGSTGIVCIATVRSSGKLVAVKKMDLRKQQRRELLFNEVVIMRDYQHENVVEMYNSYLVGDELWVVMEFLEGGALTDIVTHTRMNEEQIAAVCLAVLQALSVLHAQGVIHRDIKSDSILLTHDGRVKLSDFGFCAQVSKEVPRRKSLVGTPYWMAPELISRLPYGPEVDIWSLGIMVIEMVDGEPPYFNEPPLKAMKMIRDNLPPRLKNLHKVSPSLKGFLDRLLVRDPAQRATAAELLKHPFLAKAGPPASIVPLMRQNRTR
UniProt O00562: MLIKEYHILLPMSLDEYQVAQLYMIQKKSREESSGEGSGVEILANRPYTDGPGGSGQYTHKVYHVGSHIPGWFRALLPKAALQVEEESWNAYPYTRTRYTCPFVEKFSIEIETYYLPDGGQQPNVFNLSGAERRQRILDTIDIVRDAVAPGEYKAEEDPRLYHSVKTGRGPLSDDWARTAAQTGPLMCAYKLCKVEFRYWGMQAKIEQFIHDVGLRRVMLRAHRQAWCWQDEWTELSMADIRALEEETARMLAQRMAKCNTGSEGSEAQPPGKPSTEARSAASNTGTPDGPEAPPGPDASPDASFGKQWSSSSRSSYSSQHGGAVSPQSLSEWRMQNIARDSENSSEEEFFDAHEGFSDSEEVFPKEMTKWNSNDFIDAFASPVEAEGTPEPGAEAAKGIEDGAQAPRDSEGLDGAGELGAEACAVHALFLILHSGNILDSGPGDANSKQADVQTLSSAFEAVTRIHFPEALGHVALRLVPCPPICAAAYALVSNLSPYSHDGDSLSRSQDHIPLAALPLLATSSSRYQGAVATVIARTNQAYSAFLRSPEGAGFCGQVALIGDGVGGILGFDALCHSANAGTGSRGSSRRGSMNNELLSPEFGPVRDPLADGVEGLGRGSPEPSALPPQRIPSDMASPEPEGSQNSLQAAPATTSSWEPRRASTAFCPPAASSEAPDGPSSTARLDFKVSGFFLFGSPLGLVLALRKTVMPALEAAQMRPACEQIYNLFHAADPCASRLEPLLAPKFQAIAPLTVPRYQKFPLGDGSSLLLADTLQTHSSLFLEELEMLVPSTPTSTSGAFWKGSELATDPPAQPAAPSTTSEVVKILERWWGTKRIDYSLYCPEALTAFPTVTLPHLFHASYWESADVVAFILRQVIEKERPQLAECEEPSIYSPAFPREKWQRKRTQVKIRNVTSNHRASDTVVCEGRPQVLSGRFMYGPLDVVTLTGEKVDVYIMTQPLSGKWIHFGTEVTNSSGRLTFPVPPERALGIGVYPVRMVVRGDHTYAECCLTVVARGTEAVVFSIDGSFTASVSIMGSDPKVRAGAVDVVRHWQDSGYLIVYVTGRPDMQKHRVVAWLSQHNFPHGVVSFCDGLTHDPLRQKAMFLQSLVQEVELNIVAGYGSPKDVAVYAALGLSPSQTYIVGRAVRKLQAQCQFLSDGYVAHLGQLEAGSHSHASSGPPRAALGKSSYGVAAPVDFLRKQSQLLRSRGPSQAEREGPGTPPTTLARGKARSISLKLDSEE
UniProt O00264: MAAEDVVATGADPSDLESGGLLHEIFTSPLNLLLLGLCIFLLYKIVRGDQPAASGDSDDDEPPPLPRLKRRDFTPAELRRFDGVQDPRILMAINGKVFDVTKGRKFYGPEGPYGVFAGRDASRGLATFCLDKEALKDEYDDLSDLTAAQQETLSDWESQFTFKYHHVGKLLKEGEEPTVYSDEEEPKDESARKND
UniProt Q9UQ80: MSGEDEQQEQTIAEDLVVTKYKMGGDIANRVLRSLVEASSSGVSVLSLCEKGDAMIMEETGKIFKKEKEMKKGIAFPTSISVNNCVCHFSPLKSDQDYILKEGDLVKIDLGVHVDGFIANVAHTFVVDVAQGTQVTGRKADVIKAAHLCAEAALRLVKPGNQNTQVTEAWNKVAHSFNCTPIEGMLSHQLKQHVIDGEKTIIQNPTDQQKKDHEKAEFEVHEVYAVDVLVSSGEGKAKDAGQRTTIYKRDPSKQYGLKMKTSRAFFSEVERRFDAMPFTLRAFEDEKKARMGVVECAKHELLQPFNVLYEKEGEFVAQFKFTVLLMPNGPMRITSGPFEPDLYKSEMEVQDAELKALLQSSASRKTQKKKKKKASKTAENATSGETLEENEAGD
UniProt Q9NRP0: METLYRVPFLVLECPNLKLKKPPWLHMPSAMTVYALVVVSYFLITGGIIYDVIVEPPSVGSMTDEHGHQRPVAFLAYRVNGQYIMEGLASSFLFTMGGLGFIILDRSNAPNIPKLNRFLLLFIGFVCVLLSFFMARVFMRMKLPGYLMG
UniProt Q8IWE5: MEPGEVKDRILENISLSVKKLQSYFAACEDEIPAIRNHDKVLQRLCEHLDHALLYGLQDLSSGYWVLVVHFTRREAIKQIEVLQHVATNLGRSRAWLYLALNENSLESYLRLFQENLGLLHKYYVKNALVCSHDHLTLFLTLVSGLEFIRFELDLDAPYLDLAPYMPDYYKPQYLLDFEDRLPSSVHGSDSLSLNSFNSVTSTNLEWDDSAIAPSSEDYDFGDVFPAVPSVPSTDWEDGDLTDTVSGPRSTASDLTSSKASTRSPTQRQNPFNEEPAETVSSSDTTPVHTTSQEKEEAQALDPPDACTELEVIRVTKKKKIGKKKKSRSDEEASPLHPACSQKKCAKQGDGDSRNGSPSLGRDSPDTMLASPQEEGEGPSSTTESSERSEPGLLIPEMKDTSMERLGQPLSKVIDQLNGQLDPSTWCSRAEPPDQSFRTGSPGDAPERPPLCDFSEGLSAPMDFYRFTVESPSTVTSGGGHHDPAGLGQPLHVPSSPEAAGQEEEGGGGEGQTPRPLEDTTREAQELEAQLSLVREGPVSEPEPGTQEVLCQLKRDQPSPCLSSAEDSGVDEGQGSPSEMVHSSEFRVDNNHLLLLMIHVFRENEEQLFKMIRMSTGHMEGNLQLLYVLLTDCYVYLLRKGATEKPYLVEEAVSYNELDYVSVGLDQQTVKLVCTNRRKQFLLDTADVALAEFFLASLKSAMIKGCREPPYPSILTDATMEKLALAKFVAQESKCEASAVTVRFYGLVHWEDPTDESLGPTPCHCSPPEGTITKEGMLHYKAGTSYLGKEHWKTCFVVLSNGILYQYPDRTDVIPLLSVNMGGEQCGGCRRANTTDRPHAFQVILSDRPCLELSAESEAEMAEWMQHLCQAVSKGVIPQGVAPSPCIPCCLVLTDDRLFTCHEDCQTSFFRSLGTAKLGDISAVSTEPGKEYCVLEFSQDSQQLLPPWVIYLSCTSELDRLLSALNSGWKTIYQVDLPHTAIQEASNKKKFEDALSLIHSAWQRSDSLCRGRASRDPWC
UniProt P48426: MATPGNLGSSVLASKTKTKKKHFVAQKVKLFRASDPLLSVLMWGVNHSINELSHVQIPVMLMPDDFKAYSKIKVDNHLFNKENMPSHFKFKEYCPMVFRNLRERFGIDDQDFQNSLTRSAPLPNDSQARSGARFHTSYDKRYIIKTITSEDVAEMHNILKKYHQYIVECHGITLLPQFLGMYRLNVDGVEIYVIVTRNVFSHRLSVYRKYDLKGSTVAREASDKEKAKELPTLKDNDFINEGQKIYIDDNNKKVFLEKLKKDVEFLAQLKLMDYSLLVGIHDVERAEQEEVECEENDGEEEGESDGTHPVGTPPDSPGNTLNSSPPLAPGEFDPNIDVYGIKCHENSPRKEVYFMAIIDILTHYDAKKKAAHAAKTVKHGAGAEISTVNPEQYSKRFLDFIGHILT
UniProt O75151: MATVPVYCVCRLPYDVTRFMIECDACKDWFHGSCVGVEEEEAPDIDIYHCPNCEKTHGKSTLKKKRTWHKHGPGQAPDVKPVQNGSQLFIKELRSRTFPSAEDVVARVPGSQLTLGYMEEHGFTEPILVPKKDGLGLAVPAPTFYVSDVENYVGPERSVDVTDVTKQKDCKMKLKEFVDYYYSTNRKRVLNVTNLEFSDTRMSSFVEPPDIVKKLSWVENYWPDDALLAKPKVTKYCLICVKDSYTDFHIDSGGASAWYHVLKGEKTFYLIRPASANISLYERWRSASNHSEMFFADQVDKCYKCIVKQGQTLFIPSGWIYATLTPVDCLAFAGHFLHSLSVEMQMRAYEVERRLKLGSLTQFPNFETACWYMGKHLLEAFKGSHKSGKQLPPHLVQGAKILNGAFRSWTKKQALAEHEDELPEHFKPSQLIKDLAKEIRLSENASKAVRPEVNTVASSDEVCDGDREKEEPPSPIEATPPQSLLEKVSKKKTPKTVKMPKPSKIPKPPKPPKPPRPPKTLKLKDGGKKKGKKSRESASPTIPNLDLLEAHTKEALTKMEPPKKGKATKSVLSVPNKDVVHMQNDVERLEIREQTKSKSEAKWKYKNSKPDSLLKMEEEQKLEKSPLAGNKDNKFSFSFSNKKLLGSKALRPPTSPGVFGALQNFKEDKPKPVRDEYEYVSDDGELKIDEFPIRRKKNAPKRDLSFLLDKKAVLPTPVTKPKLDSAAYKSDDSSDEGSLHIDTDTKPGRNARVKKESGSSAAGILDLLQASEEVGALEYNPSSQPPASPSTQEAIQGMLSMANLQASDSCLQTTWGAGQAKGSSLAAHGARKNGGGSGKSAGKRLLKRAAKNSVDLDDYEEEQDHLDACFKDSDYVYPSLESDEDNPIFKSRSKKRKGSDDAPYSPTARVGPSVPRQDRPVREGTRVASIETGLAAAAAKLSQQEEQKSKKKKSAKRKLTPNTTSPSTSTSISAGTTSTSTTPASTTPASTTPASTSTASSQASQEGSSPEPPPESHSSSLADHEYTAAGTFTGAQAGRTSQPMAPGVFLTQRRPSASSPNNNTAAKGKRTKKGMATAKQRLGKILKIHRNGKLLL
UniProt P36871: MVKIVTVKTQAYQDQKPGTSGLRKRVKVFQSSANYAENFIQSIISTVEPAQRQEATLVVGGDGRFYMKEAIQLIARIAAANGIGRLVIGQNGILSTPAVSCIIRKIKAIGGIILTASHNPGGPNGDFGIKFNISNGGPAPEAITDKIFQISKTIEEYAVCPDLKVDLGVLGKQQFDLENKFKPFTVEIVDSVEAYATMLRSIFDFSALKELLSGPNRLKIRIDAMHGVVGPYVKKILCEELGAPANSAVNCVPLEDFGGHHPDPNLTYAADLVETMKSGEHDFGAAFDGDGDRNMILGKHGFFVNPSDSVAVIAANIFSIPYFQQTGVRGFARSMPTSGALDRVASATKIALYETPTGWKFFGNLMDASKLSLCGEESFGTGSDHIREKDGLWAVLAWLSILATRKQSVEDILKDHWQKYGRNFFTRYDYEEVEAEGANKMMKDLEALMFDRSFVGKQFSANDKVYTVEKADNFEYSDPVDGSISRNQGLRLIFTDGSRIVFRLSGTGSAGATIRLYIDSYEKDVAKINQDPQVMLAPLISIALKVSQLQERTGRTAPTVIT

| Target | dose-dependent thermal stabilisation call |
| --- | --- |
| PGM2L1 (UniProt Q6PCE3) | inactive: 0 |
| PDK3 (UniProt Q15120) | inactive: 0 |
| PHF5A (UniProt Q7RTV0) | inactive: 0 |
| PAICS (UniProt P22234) | inactive: 0 |
| PIK3CD (UniProt O00329) | inactive: 0 |
| PARD6B (UniProt Q9BYG5) | inactive: 0 |
| PAK4 (UniProt O96013) | inactive: 0 |
| PLEK (UniProt P08567) | inactive: 0 |
| PAFAH1B3 (UniProt Q15102) | inactive: 0 |
| PITPNM1 (UniProt O00562) | inactive: 0 |
| PGRMC1 (UniProt O00264) | inactive: 0 |
| OSBPL11 (UniProt Q9BXB4) | inactive: 0 |
| PA2G4 (UniProt Q9UQ80) | inactive: 0 |
| OSTC (UniProt Q9NRP0) | inactive: 0 |
| PLEKHM2 (UniProt Q8IWE5) | inactive: 0 |
| PIP4K2A (UniProt P48426) | inactive: 0 |
| PHF2 (UniProt O75151) | inactive: 0 |
| PIGN (UniProt O95427) | inactive: 0 |
| PCYOX1 (UniProt Q9UHG3) | inactive: 0 |
| PLEKHO2 (UniProt Q8TD55) | inactive: 0 |
| PANX1 (UniProt Q96RD7) | inactive: 0 |
| PFKL (UniProt P17858) | inactive: 0 |
| P4HA1 (UniProt P13674) | inactive: 0 |
| PDCL3 (UniProt Q9H2J4) | inactive: 0 |
| P2RY11 (UniProt Q96G91) | inactive: 0 |
| PGM1 (UniProt P36871) | inactive: 0 |
| PHKA2 (UniProt P46019) | inactive: 0 |

2 entries picked at random from those above, as already listed:

| Target | dose-dependent thermal stabilisation call |
| --- | --- |
| PDCL3 (UniProt Q9H2J4) | inactive: 0 |
| OSBPL11 (UniProt Q9BXB4) | inactive: 0 |
